This is one part of the list.
Legend:
Assay in all cases: log2 fold change, soluble protein after heating vs DMSO (PISA); higher = thermal stabilisation; K562 lysate, 10 uM; active = over 0.2 and 3.5 SD of the protein, either way, in both replicates (recomputed)
erlotinib = compound: C#Cc1cccc(Nc2ncnc3cc(OCCOC)c(OCCOC)cc23)c1 [erlotinib]
Procedure, shortened: (§1)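 Following dounce homogenisation of K562 pellets in PBS pH 7.4 with 1 mM MgCl2, crude extract at 1 mg/mL protein was incubated for 30 min with 10 μM compound. Aliquots were then heated for 3 min over 48°C-58°C and pooled, NP-40 was added to 0.5% at 4°C, and soluble protein was recovered as the supernatant at 21,000xg for 90 min. Channel-sum-equalised TMTpro 16plex LC-MS/MS quantified this protein. Each value, from duplicates, is a log-two fold change in thermal stability relative to solvent controls.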

Protein sequences, listed by entry. Tags and fused reporters are not part of them. Lines headed by an entry give the natural chain unless they say otherwise; changes in a name come on top.
UniProt Q9UQN3, whole entry, looked up: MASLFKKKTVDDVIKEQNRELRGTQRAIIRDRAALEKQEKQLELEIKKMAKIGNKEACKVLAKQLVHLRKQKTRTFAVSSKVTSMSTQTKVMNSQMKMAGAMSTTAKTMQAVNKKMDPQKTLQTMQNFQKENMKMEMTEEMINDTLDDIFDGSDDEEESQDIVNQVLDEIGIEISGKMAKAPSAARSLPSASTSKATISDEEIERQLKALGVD
UniProt Q8N1G2: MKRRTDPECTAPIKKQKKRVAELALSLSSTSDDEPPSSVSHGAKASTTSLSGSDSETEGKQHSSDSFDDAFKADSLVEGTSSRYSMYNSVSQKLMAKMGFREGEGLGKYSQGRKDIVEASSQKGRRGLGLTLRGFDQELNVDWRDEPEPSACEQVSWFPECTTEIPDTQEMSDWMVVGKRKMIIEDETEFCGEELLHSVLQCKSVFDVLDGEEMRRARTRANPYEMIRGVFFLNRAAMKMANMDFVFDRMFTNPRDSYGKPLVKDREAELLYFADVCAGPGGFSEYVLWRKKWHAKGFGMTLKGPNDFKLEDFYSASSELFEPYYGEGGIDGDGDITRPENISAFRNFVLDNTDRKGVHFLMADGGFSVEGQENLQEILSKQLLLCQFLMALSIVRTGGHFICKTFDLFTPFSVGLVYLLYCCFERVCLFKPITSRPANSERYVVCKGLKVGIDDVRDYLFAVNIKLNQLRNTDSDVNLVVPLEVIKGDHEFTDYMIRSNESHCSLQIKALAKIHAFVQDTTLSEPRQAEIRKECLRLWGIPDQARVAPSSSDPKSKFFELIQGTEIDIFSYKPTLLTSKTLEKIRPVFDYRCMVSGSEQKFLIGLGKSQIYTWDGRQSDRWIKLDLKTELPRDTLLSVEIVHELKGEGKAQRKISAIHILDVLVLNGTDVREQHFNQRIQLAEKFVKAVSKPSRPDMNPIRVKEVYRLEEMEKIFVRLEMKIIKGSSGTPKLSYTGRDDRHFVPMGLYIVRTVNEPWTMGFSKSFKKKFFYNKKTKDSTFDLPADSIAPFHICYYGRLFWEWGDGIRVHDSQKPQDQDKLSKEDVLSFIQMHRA
UniProt O43633: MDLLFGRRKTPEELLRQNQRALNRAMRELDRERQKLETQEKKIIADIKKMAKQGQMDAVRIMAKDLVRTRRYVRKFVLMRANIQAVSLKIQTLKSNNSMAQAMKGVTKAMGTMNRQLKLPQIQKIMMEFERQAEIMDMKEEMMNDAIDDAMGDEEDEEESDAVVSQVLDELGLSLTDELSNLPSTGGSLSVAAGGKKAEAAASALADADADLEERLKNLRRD
UniProt P12277: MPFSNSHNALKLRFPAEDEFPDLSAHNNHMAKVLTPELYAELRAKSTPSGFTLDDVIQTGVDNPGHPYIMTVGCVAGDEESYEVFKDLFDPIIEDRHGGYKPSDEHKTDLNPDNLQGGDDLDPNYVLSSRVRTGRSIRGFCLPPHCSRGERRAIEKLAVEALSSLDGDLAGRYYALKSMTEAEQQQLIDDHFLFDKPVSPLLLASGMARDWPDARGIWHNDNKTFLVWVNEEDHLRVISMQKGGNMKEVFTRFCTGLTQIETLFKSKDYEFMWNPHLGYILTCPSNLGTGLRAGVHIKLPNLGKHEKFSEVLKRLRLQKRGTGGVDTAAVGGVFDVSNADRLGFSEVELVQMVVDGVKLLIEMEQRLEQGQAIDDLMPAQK
UniProt Q9H6Q4: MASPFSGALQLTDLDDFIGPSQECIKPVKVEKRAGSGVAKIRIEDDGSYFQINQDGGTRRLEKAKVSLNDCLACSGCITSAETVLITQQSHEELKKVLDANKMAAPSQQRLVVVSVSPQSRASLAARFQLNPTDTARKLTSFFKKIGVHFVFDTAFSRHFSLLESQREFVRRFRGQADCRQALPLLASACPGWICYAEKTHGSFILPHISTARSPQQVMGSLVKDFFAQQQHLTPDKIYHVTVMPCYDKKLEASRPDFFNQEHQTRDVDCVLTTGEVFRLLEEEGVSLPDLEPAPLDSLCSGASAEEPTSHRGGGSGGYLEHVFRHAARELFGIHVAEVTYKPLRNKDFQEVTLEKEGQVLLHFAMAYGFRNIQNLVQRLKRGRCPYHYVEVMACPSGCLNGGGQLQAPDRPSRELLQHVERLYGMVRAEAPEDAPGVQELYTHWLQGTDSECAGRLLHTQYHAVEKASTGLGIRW
UniProt Q8NFW8: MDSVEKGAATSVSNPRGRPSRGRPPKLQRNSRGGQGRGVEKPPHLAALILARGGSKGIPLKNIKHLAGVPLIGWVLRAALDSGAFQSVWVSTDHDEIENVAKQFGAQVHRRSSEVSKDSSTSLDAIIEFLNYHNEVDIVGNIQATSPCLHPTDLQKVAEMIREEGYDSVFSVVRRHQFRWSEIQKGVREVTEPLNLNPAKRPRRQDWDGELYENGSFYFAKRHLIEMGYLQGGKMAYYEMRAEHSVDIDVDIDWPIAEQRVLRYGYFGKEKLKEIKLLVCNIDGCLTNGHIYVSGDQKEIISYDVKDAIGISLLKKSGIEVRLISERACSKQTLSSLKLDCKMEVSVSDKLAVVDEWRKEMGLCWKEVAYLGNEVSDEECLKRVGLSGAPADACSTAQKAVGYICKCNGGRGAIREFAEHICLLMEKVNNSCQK
UniProt Q96CF2: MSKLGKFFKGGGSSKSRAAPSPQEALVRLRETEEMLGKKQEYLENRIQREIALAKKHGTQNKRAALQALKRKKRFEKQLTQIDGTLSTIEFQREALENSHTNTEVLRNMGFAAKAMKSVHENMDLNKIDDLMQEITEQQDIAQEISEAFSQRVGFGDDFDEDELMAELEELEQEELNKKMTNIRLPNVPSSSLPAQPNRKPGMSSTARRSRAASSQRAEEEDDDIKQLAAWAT
UniProt Q9NZ45: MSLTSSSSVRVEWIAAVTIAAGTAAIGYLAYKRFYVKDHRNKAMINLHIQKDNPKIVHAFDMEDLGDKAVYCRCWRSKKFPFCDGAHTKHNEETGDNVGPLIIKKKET
UniProt Q6FI81: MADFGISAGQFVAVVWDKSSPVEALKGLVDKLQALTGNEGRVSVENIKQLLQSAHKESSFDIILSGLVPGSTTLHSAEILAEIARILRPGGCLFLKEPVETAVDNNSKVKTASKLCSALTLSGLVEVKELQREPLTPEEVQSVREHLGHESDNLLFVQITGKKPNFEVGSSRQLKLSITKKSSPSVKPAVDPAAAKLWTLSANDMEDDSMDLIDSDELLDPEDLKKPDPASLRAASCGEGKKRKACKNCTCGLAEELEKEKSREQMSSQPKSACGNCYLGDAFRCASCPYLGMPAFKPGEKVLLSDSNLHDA
UniProt Q8IWX8: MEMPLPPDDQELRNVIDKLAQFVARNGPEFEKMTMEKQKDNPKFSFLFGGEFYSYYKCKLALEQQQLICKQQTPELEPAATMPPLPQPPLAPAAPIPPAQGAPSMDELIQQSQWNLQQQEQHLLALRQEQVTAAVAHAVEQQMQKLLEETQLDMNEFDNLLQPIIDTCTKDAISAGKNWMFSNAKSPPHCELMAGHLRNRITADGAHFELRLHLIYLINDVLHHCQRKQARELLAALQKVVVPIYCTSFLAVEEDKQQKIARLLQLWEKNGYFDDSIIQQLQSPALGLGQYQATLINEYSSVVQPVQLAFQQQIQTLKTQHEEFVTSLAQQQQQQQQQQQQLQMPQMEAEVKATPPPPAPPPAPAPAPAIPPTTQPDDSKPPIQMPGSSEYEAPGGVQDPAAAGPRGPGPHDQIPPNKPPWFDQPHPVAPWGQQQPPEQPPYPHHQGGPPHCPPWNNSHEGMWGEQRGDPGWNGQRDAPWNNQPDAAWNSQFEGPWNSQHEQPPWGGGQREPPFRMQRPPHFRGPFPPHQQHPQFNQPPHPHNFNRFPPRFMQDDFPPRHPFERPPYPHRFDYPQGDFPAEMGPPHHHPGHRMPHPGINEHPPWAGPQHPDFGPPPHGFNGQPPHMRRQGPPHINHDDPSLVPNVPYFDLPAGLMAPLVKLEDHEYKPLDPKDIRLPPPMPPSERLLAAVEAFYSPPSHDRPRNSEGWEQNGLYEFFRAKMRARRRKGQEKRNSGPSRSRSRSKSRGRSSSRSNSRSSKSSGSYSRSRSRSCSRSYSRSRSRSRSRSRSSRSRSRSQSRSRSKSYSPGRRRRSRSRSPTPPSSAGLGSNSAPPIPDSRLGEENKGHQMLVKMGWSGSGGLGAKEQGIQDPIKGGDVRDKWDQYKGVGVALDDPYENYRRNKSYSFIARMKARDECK
UniProt P61024, whole entry, looked up: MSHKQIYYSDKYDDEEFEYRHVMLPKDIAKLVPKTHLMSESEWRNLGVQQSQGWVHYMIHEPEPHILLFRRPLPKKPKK
UniProt Q7LBR1: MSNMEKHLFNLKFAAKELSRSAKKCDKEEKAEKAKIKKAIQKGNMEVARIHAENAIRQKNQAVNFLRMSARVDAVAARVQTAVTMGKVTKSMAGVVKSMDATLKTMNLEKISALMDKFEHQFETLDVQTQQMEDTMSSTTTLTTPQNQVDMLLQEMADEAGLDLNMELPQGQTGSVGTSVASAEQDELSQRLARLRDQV
UniProt P30085: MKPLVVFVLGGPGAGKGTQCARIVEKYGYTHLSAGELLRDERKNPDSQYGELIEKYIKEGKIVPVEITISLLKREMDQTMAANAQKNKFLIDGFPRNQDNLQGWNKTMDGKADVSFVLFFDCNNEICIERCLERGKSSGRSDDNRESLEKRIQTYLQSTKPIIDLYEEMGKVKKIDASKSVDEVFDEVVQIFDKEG
UniProt P26374: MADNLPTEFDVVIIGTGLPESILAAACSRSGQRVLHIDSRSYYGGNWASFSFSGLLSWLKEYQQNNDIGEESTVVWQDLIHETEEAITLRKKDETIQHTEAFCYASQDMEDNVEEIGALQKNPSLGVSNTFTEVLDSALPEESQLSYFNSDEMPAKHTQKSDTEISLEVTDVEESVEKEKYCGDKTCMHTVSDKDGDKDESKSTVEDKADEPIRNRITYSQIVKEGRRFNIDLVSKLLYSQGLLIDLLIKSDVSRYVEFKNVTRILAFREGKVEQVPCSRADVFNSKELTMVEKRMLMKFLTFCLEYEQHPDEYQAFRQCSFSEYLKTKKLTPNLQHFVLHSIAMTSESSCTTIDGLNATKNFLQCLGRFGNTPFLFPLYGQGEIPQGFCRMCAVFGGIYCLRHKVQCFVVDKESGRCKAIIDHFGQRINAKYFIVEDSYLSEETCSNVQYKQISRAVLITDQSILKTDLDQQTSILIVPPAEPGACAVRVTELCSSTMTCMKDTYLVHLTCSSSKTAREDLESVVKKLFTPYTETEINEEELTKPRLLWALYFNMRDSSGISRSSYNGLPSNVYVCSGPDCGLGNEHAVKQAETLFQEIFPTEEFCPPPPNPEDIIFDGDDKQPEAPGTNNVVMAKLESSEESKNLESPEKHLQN

[1] = compound: C/C(=N\NC(=O)C1=CC(=CC=C1)S(=O)(=O)N2CCOCC2)/C3=C(C=CC(=C3)Cl)O
Procedure, shortened: as §1

[2] = compound: C1=CC(=CC=C1C2=NC3=C(N2)C=C(C=C3)C(=O)N)OC4=CC=C(C=C4)Cl
Procedure, shortened: as §1

[3] = compound: C1=CC2=C(C=CC(=C2)/C=C\3/C(=O)NC(=NCC4=CC=CS4)S3)N=C1
Procedure, shortened: as §1

[4] = compound: C1=CC2=NC=CN=C2C=C1/C=C/3\C(=O)NC(=O)S3
Procedure, shortened: as §1

[5] = compound: C1=CC=C(C=C1)C2=NC(=C(N2)C3=CC=NC=C3)C4=CC(=C(C=C4)Cl)O
Procedure, shortened: as §1

[6] = compound: C1=CC=C2C(=C1)C3=NNC4=CC=CC(=C43)C2=O
Procedure, shortened: as §1

[7] = compound: C1CCN(C1)C(=O)NC2=CC=CC(=C2)NC3=NC=C(C(=N3)NCCC4=CN=CN4)Br
Procedure, shortened: as §1

[8] = compound: C1CN(CCC1(CC2=CC=C(C=C2)Cl)N)C3=NC=NC4=C3C=CN4
Procedure, shortened: as §1

IRAK-1-4 Inhibitor I = compound: C1COCCN1CCN2C3=CC=CC=C3N=C2NC(=O)C4=CC(=CC=C4)[N+](=O)[O-] [IRAK-1-4 Inhibitor I]
Procedure, shortened: as §1

ibrutinib = compound: C=CC(=O)N1CCC[C@@H](n2nc(-c3ccc(Oc4ccccc4)cc3)c3c(N)ncnc32)C1 [ibrutinib]
Procedure, shortened: as §1

[9] = compound: CC(=O)c1cnc2ccc(-c3cc(Cl)c(O)c(Cl)c3)nc2c1N[C@H]1CC[C@H](CN(C)C)CC1
Procedure, shortened: as §1

ralimetinib = compound: CC(C)(C)Cn1c(N)nc2ccc(-c3[nH]c(C(C)(C)C)nc3-c3ccc(F)cc3)nc21 [ralimetinib]
Procedure, shortened: as §1

[10] = compound: CC(C)(O)CC(=O)NCCn1ccc2ncnc(Nc3ccc(Oc4cccc(C(F)(F)F)c4)c(Cl)c3)c21
Procedure, shortened: as §1

[11] = compound: CC(C)C1=C2N=C(C=C(N2N=C1)NCC3=CC=CC=C3)NCCCCCCN
Procedure, shortened: as §1

[12] = compound: CC1=C(C(CC(=O)N1)C2=CC=C(C=C2)C(F)(F)F)C(=O)NC3=C(C=C4C(=C3)C=NN4)F
Procedure, shortened: as §1

[13] = compound: CC1=C(C2=C(C=C1)C(=O)C3=CC=CC=C3N2CCCN)C
Procedure, shortened: as §1

[14] = compound: CC1=C(C=C(C=C1)NC(=O)C2=CC(=CC=C2)C(C)(C)C#N)NC3=CC4=C(C=C3)N=CN(C4=O)C
Procedure, shortened: as §1

[15] = compound: CC1=C(C=C(C=C1)NC(=O)C2=CC(=CC=C2)N(C)C)NC(=O)C3=CC=C(C=C3)O
Procedure, shortened: as §1

[16] = compound: CC1=CC=C(C=C1)SC2=C3C=C(SC3=CN=C2)C(=O)N
Procedure, shortened: as §1

Measured: log2 fold change

CHMP2B (UniProt Q9UQN3)
inactive: erlotinib -0.039 | [1] -0.034 | [2] -0.01 | [3] 0.013 | [4] -0.009 | [5] 0.047 | [6] 0.04 | [7] -0.008 | [8] -0.03 | IRAK-1-4 Inhibitor I -0.023 | ibrutinib 0.026 | [9] 0.02 | ralimetinib 0.006 | [10] 0.031 | [11] -0.02 | [12] 0.019 | [13] -0.02 | [14] -0.023 | [15] -0.003 | [16] -0.029

CMTR1 (UniProt Q8N1G2)
inactive: erlotinib -0.003 | [1] -0.012 | [2] -0.056 | [3] 0.035 | [4] -0.007 | [5] 0.016 | [6] -0.036 | [7] -0.004 | [8] -0.005 | IRAK-1-4 Inhibitor I -0.007 | ibrutinib -0.011 | [9] 0.023 | ralimetinib 0.045 | [10] 0.031 | [11] 0.003 | [12] -0.019 | [13] -0.009 | [14] 0.036 | [15] 0.049 | [16] 0.003

CHMP2A (UniProt O43633)
inactive: erlotinib -0.029 | [1] -0.322 | [2] 0.006 | [3] -0.021 | [4] -0.005 | [5] 0 | [6] 0.034 | [7] -0.022 | [8] -0.031 | IRAK-1-4 Inhibitor I -0.044 | ibrutinib 0.017 | [9] 0.057 | ralimetinib 0.021 | [10] 0.001 | [11] 0.014 | [12] -0.009 | [13] 0.034 | [14] 0.019 | [15] -0.034 | [16] 0.001

CKB (UniProt P12277)
inactive: erlotinib -0.008 | [1] 0.006 | [2] -0.043 | [3] -0.019 | [4] 0.024 | [5] -0.017 | [6] -0.029 | [7] -0.016 | [8] -0.025 | IRAK-1-4 Inhibitor I -0.013 | ibrutinib 0.01 | [9] 0.029 | ralimetinib 0.033 | [10] 0.014 | [11] 0.005 | [12] -0.029 | [13] 0.005 | [14] -0.032 | [15] 0.024 | [16] 0.016

CIAO3 (UniProt Q9H6Q4)
inactive: erlotinib 0.002 | [1] 0.01 | [2] 0.027 | [3] -0.013 | [4] -0.017 | [5] 0.002 | [6] -0.033 | [7] 0.023 | [8] 0.016 | IRAK-1-4 Inhibitor I 0.002 | ibrutinib 0.07 | [9] 0.006 | ralimetinib 0.024 | [10] -0.018 | [11] -0.037 | [12] -0.022 | [13] -0.021 | [14] 0.051 | [15] -0.023 | [16] -0.006

Random excerpt: two entries already listed
CHMP2B (UniProt Q9UQN3)
inactive: erlotinib -0.039 | [1] -0.034 | [2] -0.01 | [3] 0.013 | [4] -0.009 | [5] 0.047 | [6] 0.04 | [7] -0.008 | [8] -0.03 | IRAK-1-4 Inhibitor I -0.023 | ibrutinib 0.026 | [9] 0.02 | ralimetinib 0.006 | [10] 0.031 | [11] -0.02 | [12] 0.019 | [13] -0.02 | [14] -0.023 | [15] -0.003 | [16] -0.029

CMTR1 (UniProt Q8N1G2)
inactive: erlotinib -0.003 | [1] -0.012 | [2] -0.056 | [3] 0.035 | [4] -0.007 | [5] 0.016 | [6] -0.036 | [7] -0.004 | [8] -0.005 | IRAK-1-4 Inhibitor I -0.007 | ibrutinib -0.011 | [9] 0.023 | ralimetinib 0.045 | [10] 0.031 | [11] 0.003 | [12] -0.019 | [13] -0.009 | [14] 0.036 | [15] 0.049 | [16] 0.003

Remaining list, next part

CHD4 isoform 2 (UniProt Q14839)
inactive: erlotinib -0.02 | [1] 0.009 | [2] 0.007 | [3] 0.004 | [4] -0.016 | [5] -0.004 | [6] -0.013 | [7] -0.013 | [8] 0.031 | IRAK-1-4 Inhibitor I -0.015 | ibrutinib -0.003 | [9] -0.008 | ralimetinib 0.026 | [10] 0.011 | [11] 0.025 | [12] 0.001 | [13] -0.037 | [14] 0.004 | [15] 0.006 | [16] 0.022

CMAS (UniProt Q8NFW8)
inactive: erlotinib 0.018 | [1] -0.047 | [2] 0.002 | [3] 0.029 | [4] -0.007 | [5] 0.002 | [6] 0.015 | [7] 0.007 | [8] 0.023 | IRAK-1-4 Inhibitor I -0.03 | ibrutinib 0 | [9] -0.017 | ralimetinib -0.005 | [10] -0.008 | [11] 0.025 | [12] 0.007 | [13] -0.009 | [14] 0.002 | [15] 0.011 | [16] 0.039

CHMP4C (UniProt Q96CF2)
inactive: erlotinib -0.028 | [1] 0.028 | [2] 0.04 | [3] 0.022 | [4] -0.024 | [5] 0.024 | [6] -0.023 | [7] -0.022 | [8] -0.015 | IRAK-1-4 Inhibitor I 0.057 | ibrutinib 0.085 | [9] -0.025 | ralimetinib -0.16 | [10] -0.024 | [11] -0.005 | [12] 0.04 | [13] -0.022 | [14] 0.022 | [15] -0.03 | [16] -0.054

CISD1 (UniProt Q9NZ45)
inactive: erlotinib -0.001 | [1] -0.081 | [2] 0.035 | [3] 0.004 | [4] 0.005 | [5] -0.026 | [6] 0.026 | [7] -0.009 | [8] 0.012 | IRAK-1-4 Inhibitor I 0.017 | ibrutinib 0.036 | [9] -0.015 | ralimetinib 0.03 | [10] -0.033 | [11] -0.037 | [12] -0.023 | [13] 0.025 | [14] 0.058 | [15] -0.031 | [16] -0.024

CKMT1A (UniProt P12532)
inactive: erlotinib -0.053 | [1] -0.098 | [2] -0.005 | [3] -0.013 | [4] -0.044 | [5] -0.042 | [6] -0.018 | [7] -0.015 | [8] 0.008 | IRAK-1-4 Inhibitor I 0.022 | ibrutinib 0.032 | [9] 0.019 | ralimetinib -0.011 | [10] -0.028 | [11] -0.032 | [12] -0.014 | [13] -0.058 | [14] 0.018 | [15] 0.032 | [16] -0.037

CIAPIN1 (UniProt Q6FI81)
inactive: erlotinib 0.021 | [1] 0.043 | [2] 0.008 | [3] -0.01 | [4] 0.016 | [5] 0.016 | [6] 0.026 | [7] -0.004 | [8] -0.004 | IRAK-1-4 Inhibitor I 0.012 | ibrutinib 0.018 | [9] 0.002 | ralimetinib -0.036 | [10] -0.007 | [11] 0.002 | [12] -0.039 | [13] 0.007 | [14] 0.01 | [15] -0.014 | [16] -0.016

CHERP (UniProt Q8IWX8)
inactive: erlotinib 0.02 | [1] 0.017 | [2] -0.036 | [3] -0.012 | [4] -0.032 | [5] 0.013 | [6] -0.005 | [7] 0.007 | [8] 0.018 | IRAK-1-4 Inhibitor I -0.009 | ibrutinib 0.037 | [9] -0.002 | ralimetinib 0.038 | [10] -0.029 | [11] -0.031 | [12] -0.026 | [13] 0.002 | [14] -0.03 | [15] 0.02 | [16] 0.014

CKS1B (UniProt P61024)
inactive: erlotinib -0.058 | [1] -0.097 | [2] -0.037 | [3] 0.042 | [4] 0.008 | [5] 0.121 | [6] 0.092 | [7] 0.038 | [8] -0.012 | IRAK-1-4 Inhibitor I -0.018 | ibrutinib 0.049 | [9] 0.01 | ralimetinib -0.161 | [10] -0.034 | [11] 0.011 | [12] 0.055 | [13] 0 | [14] -0.059 | [15] 0.003 | [16] -0.012

CHMP1B (UniProt Q7LBR1)
inactive: erlotinib -0.071 | [1] -0.037 | [2] -0.009 | [3] 0.026 | [4] 0 | [5] 0.033 | [6] 0.024 | [7] -0.006 | [8] -0.003 | IRAK-1-4 Inhibitor I 0.004 | ibrutinib -0.035 | [9] -0.023 | ralimetinib 0 | [10] -0.025 | [11] -0.032 | [12] -0.048 | [13] 0.006 | [14] -0.003 | [15] 0.005 | [16] -0.028

CMPK1 (UniProt P30085)
inactive: erlotinib -0.019 | [1] -0.052 | [2] 0.021 | [3] 0.024 | [4] -0.015 | [5] -0.014 | [6] 0.073 | [7] 0.02 | [8] 0.005 | IRAK-1-4 Inhibitor I -0.002 | ibrutinib 0.008 | [9] 0.046 | ralimetinib 0.011 | [10] 0.002 | [11] -0.014 | [12] 0 | [13] 0.013 | [14] -0.005 | [15] 0.007 | [16] 0.007

CHML (UniProt P26374)
inactive: erlotinib -0.03 | [1] -0.031 | [2] 0.028 | [3] -0.026 | [4] -0.013 | [5] -0.021 | [6] -0.004 | [7] -0.033 | [8] -0.001 | IRAK-1-4 Inhibitor I -0.012 | ibrutinib -0.029 | [9] -0.017 | ralimetinib -0.008 | [10] -0.004 | [11] -0.009 | [12] -0.012 | [13] 0 | [14] -0.003 | [15] -0.017 | [16] -0.006
